This note sets out measurements from PMC12311725, “Identification of Ginsentide-like Peptides from Cacao Beans with Oxidative Stress Protection” (ACS Omega, 2025).

By UniProt entry, the sequences of proteins in these tests, tags left out.
UniProt O43813: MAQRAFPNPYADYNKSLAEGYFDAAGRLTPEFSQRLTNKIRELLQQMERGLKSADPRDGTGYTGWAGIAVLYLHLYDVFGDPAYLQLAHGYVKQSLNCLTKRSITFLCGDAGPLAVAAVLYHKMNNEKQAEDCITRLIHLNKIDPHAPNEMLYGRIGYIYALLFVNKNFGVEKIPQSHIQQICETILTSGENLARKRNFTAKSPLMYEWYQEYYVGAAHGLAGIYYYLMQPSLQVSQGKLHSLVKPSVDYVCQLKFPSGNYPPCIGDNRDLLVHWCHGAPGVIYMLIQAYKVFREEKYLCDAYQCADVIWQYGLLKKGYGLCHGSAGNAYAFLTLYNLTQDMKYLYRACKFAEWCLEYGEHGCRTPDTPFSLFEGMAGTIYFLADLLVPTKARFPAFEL
UniProt Q13885: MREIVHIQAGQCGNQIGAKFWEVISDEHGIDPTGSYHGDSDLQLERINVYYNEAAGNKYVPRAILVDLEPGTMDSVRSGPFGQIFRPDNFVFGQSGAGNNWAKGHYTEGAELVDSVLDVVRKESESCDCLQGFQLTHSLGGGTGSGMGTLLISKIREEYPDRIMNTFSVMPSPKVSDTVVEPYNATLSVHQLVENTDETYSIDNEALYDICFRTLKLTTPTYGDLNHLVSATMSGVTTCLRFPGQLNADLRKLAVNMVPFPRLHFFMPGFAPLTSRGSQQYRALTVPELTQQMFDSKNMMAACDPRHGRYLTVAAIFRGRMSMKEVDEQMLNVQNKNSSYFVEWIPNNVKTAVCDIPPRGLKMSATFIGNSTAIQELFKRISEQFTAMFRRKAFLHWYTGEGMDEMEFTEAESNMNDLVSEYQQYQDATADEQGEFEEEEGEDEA
UniProt Q9BVA1: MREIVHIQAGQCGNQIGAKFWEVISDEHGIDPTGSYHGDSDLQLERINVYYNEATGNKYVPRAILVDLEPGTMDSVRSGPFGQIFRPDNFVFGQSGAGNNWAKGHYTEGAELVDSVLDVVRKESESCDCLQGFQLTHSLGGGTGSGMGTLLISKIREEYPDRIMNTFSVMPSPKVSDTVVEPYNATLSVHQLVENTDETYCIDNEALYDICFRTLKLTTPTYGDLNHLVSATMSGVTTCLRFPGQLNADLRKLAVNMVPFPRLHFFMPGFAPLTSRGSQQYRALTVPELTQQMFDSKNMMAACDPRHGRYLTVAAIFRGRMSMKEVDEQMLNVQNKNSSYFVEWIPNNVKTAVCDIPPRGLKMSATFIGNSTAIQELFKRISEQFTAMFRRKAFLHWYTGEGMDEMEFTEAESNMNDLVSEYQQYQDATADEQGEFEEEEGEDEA

T1: biotinylated cocotide tC1 (Theobroma cacao)
T1 sequence (peptide, K(biotin), biotin on the added N-terminal Lys; oxidatively folded (disulfides)): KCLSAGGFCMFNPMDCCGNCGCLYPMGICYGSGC

B1: ferrochelatase (enzyme, UniProt P22830 55-423)
chain: GAKPQVQPQKRKPKTGILMLNMGGPETLGDVHDFLLRLFLDRDLMTLPIQNKLAPFIAKRRTPKIQEQYRRIGGGSPIKIWTSKQGEGMVKLLDELSPNTAPHKYYIGFRYVHPLTEEAIEEMERDGLERAIAFTQYPQYSCSTTGSSLNAIYRYYNQVGRKPTMKWSTIDRWPTHHLLIQCFADHILKELDHFPLEKRSEVVILFSAHSLPMSVVNRGDPYPQEVSATVQKVMERLEYCNPYRLVWQSKVGPMPWLGPQTDESIKGLCERGRKNILLVPIAFTSDHIETLYELDIEYSQVLAKECGVENIRRAESLNGNPLFSKALADLVHSHIQSNELCSKQLTLSCPLCVNPVCRETKSFFTSQQL

No constants are given. Whether binding was seen depends on the method and setting. Binding seen in cells or lysates may run through a third protein. A yes stands for co-enrichment or nearness to the bait. Other partners may have been found.

The test concerns the target T1, biotinylated cocotide tC1 (Theobroma cacao). Briefly: affinity purification with mass spectrometry; biotin-tC1 immobilised on NeutrAvidin UltraLink resin; 20 ug HaCaT cell lysate, overnight at 4 C; washed with PBS 10 times; on-resin digestion, LC-MS/MS, label-free quantification against a biotin control (at least 2-fold enrichment, significance >15; CRAPome filtered); only the target purified.
Take “glutathione S-transferase (LANC1) (from UniProt O43813 1-399) (enzyme)”: the binding result is reported as “binds”.

Consider “tubulin beta-2A chain (from UniProt Q13885 1-445)”, for which the binding result was “binds”. For “tubulin beta-2B chain (from UniProt Q9BVA1 1-445)” the value was “binds”. As for B1, the binding result was “binds”.
